Taken from: PubChem BioAssay AID652259 (Drosophila RNAi Screening Center, 2013)

Screen: 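Identify new Wingless signalling regulators in fly cells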 (primary screen)
Cells: Drosophila clone 8 imaginal disc epithelial cells
Knock-down reagent: long dsRNA against Drosophila genes
Challenge: pathway stimulated by co-transfected Wingless expression plasmid
Measured: 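Firefly luciferase from a tcf-site Wingless reporter, measured alongside co-transfected Renilla luciferase that tracks transfection; pathway stimulated by a Wingless plasmid; the firefly-to-Renilla ratio is not deposited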
Scale: firefly reporter light: higher = more Wg reporter light, before normalisation; Renilla control light: higher = more transfected or surviving cells
Hit rule: 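Strong candidates differ from their plate mean by at least two out of four per-plate statistical tests; weak candidates meet just one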
Calls: active = candidate regulator (raises or lowers reporter); inactive = not a candidate
The screen tested about 22,000 reagents; below is an unselected part of those with a known target gene and a result. In the full data, 233 (1.1%) were called active. 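Light values are raw, unnormalised plate reads; the ratio scores behind the reporter calls were not deposited.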 Unmarked entries are inactive. Not given: the amount of reagent, the time to read-out, the dose of the treatment.

| target | amplicon | firefly reporter light, replicate 1 | firefly reporter light, replicate 2 | Renilla control light, replicate 1 | Renilla control light, replicate 2 |
| --- | --- | --- | --- | --- | --- |
| CG33284 | DRSC22905 | 5.71e5 | 6.23e5 | 2.51e5 | 2.74e5 |
| PK2-R1 (Pyrokinin 2 receptor 1) | DRSC16447 | 11851 | – | 2493 | – |
| CG9578 | DRSC20694 | 3546 | 10790 | 1206 | 3930 |
| CG42260 | DRSC04172 | 2603 | 6432 | 848 | 2936 |
| CG42260 | DRSC04385 | 3676 | 8426 | 672 | 3179 |
| CG1236 | DRSC12203 | 9937 | – | 4039 | – |
| CG14143 | DRSC10146 | 3997 | – | 1765 | – |
| CG34290 | DRSC13660 | 4194 | – | 2312 | – |
| betaNACtes6 (Nascent-associated complex beta-subunit-like, testis 6) | DRSC22925 | 7.66e5 | 8.42e5 | 1.71e5 | 1.26e5 |
| PolD1 (DNA polymerase delta subunit 1) | DRSC11138 | 5639 | – | 3050 | – |
| Tango14 (Transport and Golgi organization 14) | DRSC00667 | 4165 | 9427 | 1472 | 3445 |
| Cyp4d1 (Cytochrome P450 4d1) | DRSC17694 | 3896 | – | 1540 | – |
| Cyp4d1 (Cytochrome P450 4d1) | DRSC18456 | 14979 | – | 16251 | – |
| Tim17b1 | DRSC12179 | 16541 | – | 5089 | – |
| Setd3 (SET domain containing 3) | DRSC17840 | 16168 | – | 8984 | – |
| Setd3 (SET domain containing 3) | DRSC18269 | 16746 | – | 7994 | – |
| Tom7 (Translocase of outer membrane 7) | DRSC05135 | 13248 | – | 6960 | – |
| Tom7 (Translocase of outer membrane 7) | DRSC07113 | 3577 | 5242 | 1069 | 2697 |
| RpL18A (Ribosomal protein L18A) | DRSC07538 | 6044 | – | 1689 | – |
| CG7271 | DRSC22561 | 4.74e5 | 5.95e5 | 1.84e5 | 1.76e5 |
| APP-BP1 (beta-Amyloid precursor protein binding protein 1) | DRSC10920 | 8096 | – | 3977 | – |

8 consecutive reagents already listed:
| target | amplicon | firefly reporter light, replicate 1 | firefly reporter light, replicate 2 | Renilla control light, replicate 1 | Renilla control light, replicate 2 |
| --- | --- | --- | --- | --- | --- |
| CG33284 | DRSC22905 | 5.71e5 | 6.23e5 | 2.51e5 | 2.74e5 |
| PK2-R1 (Pyrokinin 2 receptor 1) | DRSC16447 | 11851 | – | 2493 | – |
| CG9578 | DRSC20694 | 3546 | 10790 | 1206 | 3930 |
| CG42260 | DRSC04172 | 2603 | 6432 | 848 | 2936 |
| CG42260 | DRSC04385 | 3676 | 8426 | 672 | 3179 |
| CG1236 | DRSC12203 | 9937 | – | 4039 | – |
| CG14143 | DRSC10146 | 3997 | – | 1765 | – |
| CG34290 | DRSC13660 | 4194 | – | 2312 | – |

Next reagents follow.
| target | amplicon | firefly reporter light, replicate 1 | firefly reporter light, replicate 2 | Renilla control light, replicate 1 | Renilla control light, replicate 2 |
| --- | --- | --- | --- | --- | --- |
| Cht6 (Chitinase 6) | DRSC18001 | 19156 | – | 7968 | – |
| Cht6 (Chitinase 6) | DRSC18002 | 21337 | – | 3701 | – |
| Cht6 (Chitinase 6) | DRSC18253 | 25320 | – | 11997 | – |
| Ak6 (Adenylate kinase 6) | DRSC07274 | 10768 | – | 2684 | – |
| Ir93a (Ionotropic receptor 93a) | DRSC15212 | 2850 | 6178 | 1429 | 2016 |
| Ir93a (Ionotropic receptor 93a) | DRSC15213 | 18950 | – | 3673 | – |
| CG15253 | DRSC01871 | 2875 | 7888 | 1436 | 3339 |
| Nxt1 (NTF2-related export protein 1) | DRSC04630 | 3878 | 10201 | 793 | 2800 |
| Jhbp16 (Juvenile hormone binding protein 16) | DRSC15039 | 35016 | – | 5868 | – |
| Ubc2 (Ubiquitin conjugating enzyme 2) | DRSC01137 | 25349 | – | 11024 | – |
| Ubc2 (Ubiquitin conjugating enzyme 2) | DRSC03468 | 2336 | 4215 | 1211 | 2571 |
| Sclp | DRSC19851 | 3905 | 9149 | 1349 | 2448 |
| CG31810 | DRSC01560 | 18100 | – | 8528 | – |
| CG13033 | DRSC09913 | 4246 | – | 2198 | – |
| stan (starry night) | DRSC05234 | 16195 | – | 3872 | – |
| stan (starry night) | DRSC07697 | 3322 | 6458 | 592 | 2620 |
| CG4440 | DRSC02747 | 2713 | 6161 | 1098 | 2858 |
| Fbxl4 (F box and leucine-rich-repeat gene 4) | DRSC19805 | 2214 | 5306 | 976 | 2788 |
| CR32511 (pseudo) | DRSC20697 | 4065 | – | 1638 | – |
| retinin | DRSC09940 | 7186 | – | 2519 | – |
| Dbp21E2 (DEAD box protein 21E2) | DRSC00616 | 9911 | – | 4608 | – |
| CG7560 | DRSC10879 | 7357 | – | 5193 | – |
| Est-Q (Esterase Q) | DRSC11835 | 6125 | – | 2786 | – |
| Osi2 (Osiris 2) | DRSC12174 | 20033 | – | 3611 | – |
| Cht8 (Chitinase 8) | DRSC04546 | 3420 | 6074 | 890 | 2685 |
| CG5567 | DRSC10517 | 5425 | – | 2134 | – |
| Pkd2 (Polycystic kidney disease 2) | DRSC02962 | 1209 | 4871 | 933 | 3207 |
| CG17574 | DRSC06681 | 8379 | – | 3252 | – |
